Test results reported in paper PMC9322189 (Pharmaceutics, 2022).
For some assays here: End groups of sequences in plain letters are not given here. For some assays here: HELM strings list residues between dots; [ac] is acetyl, [am] amide, other brackets name non-standard units.

Assays:
[1] = peptide made by a vendor; conditions: whole synthesis
[2] = peptide made by a vendor (Fmoc solid-phase peptide synthesis); conditions: whole synthesis, area %, scale of the general procedure 0.25 mmol

Substance	final purity (method not given) [1] [%]	final purity (method not given) [2] [%]
GCHLFSKRKCSQNKQSKRGKSRFYLSWRPL	93	–
NTDPSCSCVTPLDFNHCLKNREDNGLPMLS	93	–
PEPTIDE1{A.A.E.V.R.D.P.A.V.R.L.P.L.Q.G.L.P.G.Q.D.L.R.G.A.H.P.A.Q.A}$$$$V2.0	–	97
PEPTIDE1{A.A.G.R.A.L.P.L.V.D.A.E.L.P.A.D.A.A.A.E.V.R.D.P.A.V.R.L.P.L}$$$$V2.0	–	95
PEPTIDE1{D.G.W.R.L.L.P.G.V.S.R.V.Q.M.E.S.S.R.G.R.R.R.Q.G.R.Q.L.R.G.Q}$$$$V2.0	–	99
PEPTIDE1{D.L.N.V.E.R.A.L.R.V.R.G.L.P.R.L.H.Q.L.G.Q.V.R.L.R.T.A.T.V.L}$$$$V2.0	–	95
PEPTIDE1{E.R.P.Q.D.T.H.S.C.L.P.V.R.E.E.D.P.G.L.R.V.R.W.R.L.M.I.A.S.V}$$$$V2.0	–	93
PEPTIDE1{F.M.L.I.K.N.P.M.N.V.K.N.V.E.R.P.L.K.C.M.A.T.L.P.N.I.R.K.F.I}$$$$V2.0	–	96
PEPTIDE1{G.Q.D.L.R.G.A.H.P.A.Q.A.H.A.G.D.A.L.P.G.A.Q.G.G.P.P.D.L.H.R}$$$$V2.0	–	93
PEPTIDE1{H.Q.L.G.Q.V.R.L.R.T.A.T.V.L.R.P.G.A.A.A.G.R.A.L.P.L.V.D.A.E.L}$$$$V2.0	–	94
PEPTIDE1{L.V.R.N.P.M.C.V.S.S.V.G.K.P.S.D.M.V.Q.P.L.K.P.I.R.E.F.I.G.A}$$$$V2.0	–	94
PEPTIDE1{R.E.D.N.G.L.P.M.L.S.T.N.A.M.S.W.K.T.I.S.A.M.E.K.R.G.A.R.E.T}$$$$V2.0	–	92
PEPTIDE1{R.E.S.S.R.P.R.G.E.E.T.K.R.D.Q.E.L.E.I.A.V.G.P.E.E.A.K.L.C.L}$$$$V2.0	–	97
PEPTIDE1{S.A.M.E.K.R.G.A.R.E.T.Q.Q.Q.R.K.R.V.F.R.G.R.G.V.N.S.A.K}$$$$V2.0	–	95
PEPTIDE1{S.S.D.E.L.R.N.G.K.M.K.A.F.L.S.L.A.R.F.Q.I.L.N.T.K.E.L.K.T.T}$$$$V2.0	–	94
PEPTIDE1{S.V.T.N.T.S.L.A.H.E.L.W.K.V.P.L.H.L.K.T.S.L.L.R.P.A.H.L.R.D}$$$$V2.0	–	95
PEPTIDE1{V.T.L.E.E.R.L.D.K.A.C.E.P.G.V.D.Y.D.G.Q.T.G.V.I.H.F.Q.P.R.G}$$$$V2.0	–	92
